# No constants are given. Whether binding was seen depends on the method and setting.
# Amino acid sequences for entries named in this document (tags omitted). Residues count along the entry.
# UniProt Q9ZFV5, residues 100-229: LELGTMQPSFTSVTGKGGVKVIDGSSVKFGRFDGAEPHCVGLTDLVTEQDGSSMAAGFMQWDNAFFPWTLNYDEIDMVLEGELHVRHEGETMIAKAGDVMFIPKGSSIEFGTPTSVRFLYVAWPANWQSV
# UniProt P19265, residues 1-20: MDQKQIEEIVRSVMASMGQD
# Molecular target: EutQ C-terminal domain (EutQ^100–229) (S. Typhimurium LT2) (UniProt Q9ZFV5)
# Assay: ITC; 20 μM protein in the cell, 200 to 400 μM peptide in the syringe; 19 injections, 25°C; 20 mM Na2HPO4, 20 mM NaCl, pH 6.5; both purified
substance,measurement,value
EutC^1–20 encapsulation peptide (from UniProt P19265 1-20),binding,"no binding (tested: 20 μM protein, 200 to 400 μM peptide)"

# Reference: publication PMC12487888
